Test results taken from PubChem BioAssay AID248 (DTP/NCI, 2004).
The list is a part of this screen's results and no random one: it gathers tests that were run many times, whatever their T/C, doses with no T/C, and many T/C values between a quarter and a half above the control. Other doses and runs of a compound stand elsewhere. T/C: endpoint of the treated group in % of that of the vehicle group. Some entries give survivors of the animals treated and no T/C: the source holds a T/C of zero for them, seemingly a mark for toxic or unscored doses. Some doses without a T/C left all or most animals alive at the check, yet need not have been tolerated: the source hardly ever lists a survival T/C far under the control, and the zero likely stands for such cases as well. Survivors were counted at the toxicity check, usually on the fifth day, unless a day is given; later deaths do not show. Schedules are NCI's codes, read here as Q, the interval in days (D) or hours (H), X, the number of doses. Some structures stand for samples that the source files as different forms (salt, stereo form or complex); doses refer to the form tested. Additions like (4×) say how often a value occurs here. Where survival is the endpoint, the PubChem record calls one and a half times the control and up active, and a quarter to a half above the control has no call in these data; cut-offs in other NCI protocols can differ. Some T/C values carry the count of animals alive at the toxicity check (mostly the fifth day); without a count, all were alive then. Some entries were tested several times; the values are given in rising order. Some schedule codes hold Z or #, which are not explained here.

Test system: L1210 leukemia ip in BDF1 mice, survival T/C
Test: NCI In Vivo Anticancer Drug Screen. Data for tumor model L1210 Leukemia (intraperitoneal) in B6D2F1 (BDF1) mice
Conditions: T/C endpoint: mean survival time, higher T/C = longer survival
[1] = dose: 100.0 mg/kg/injection, schedule: Q01DX001 (ip), vehicle: saline
[2] = dose: 200.0 mg/kg/injection, schedule: Q04DX003 (ip), vehicle: acetone
[3] = dose: 400.0 mg/kg/injection, schedule: Q01DX001 (ip), vehicle: saline
[4] = dose: 400.0 mg/kg/injection, schedule: Q04DX003 (ip), vehicle: acetone
[5] = dose: 400.0 mg/kg/injection, schedule: Q01DX009 (ip), vehicle: saline
[6] = dose: 400.0 mg/kg/injection, schedule: Q04DX003 (ip), vehicle: saline with Tween-80
[7] = dose: 100.0 mg/kg/injection, schedule: Q04DX003 (ip), vehicle: saline
[8] = dose: 200.0 mg/kg/injection, schedule: Q04DX003 (ip), vehicle: saline
[9] = dose: 400.0 mg/kg/injection, schedule: Q04DX003 (ip), vehicle: saline
[10] = dose: 100.0 mg/kg/injection, schedule: Q01DX009 (ip), vehicle: saline with Tween-80
[11] = dose: 200.0 mg/kg/injection, schedule: Q01DX009 (ip), vehicle: saline with Tween-80
[12] = dose: 400.0 mg/kg/injection, schedule: Q01DX009 (ip), vehicle: saline with Tween-80
[13] = dose: 400.0 mg/kg/injection, schedule: Q01DX009 (ip), vehicle: Klucel (hydroxypropylcellulose) (HPC)
[14] = dose: 100.0 mg/kg/injection, schedule: Q04DX003 (ip), vehicle: saline with Tween-80
[15] = dose: 400.0 mg/kg/injection, schedule: Q01DX001 (ip), vehicle: other
[16] = dose: 400.0 mg/kg/injection, schedule: Q01DX001 (ip), vehicle: carboxymethylcellulose (CMC)

O=C(CCN1CC1)OCCOC(=O)CCN1CC1
T/C (dose: 7.1 mg/kg/injection, schedule: Q01DX Z (ip), vehicle: methylcellulose (MC)): 147 % of control | T/C (dose: 10.0 mg/kg/injection, schedule: Q01DX005 (ip), vehicle: saline): 131 % of control | T/C (dose: 10.6 mg/kg/injection, schedule: Q01DX Z (ip), vehicle: methylcellulose (MC)): 130 % of control | T/C (dose: 16.5 mg/kg/injection, schedule: Q01DX009 (ip), vehicle: acetone): 144 % of control | T/C (dose: 25.0 mg/kg/injection, schedule: Q04DX003 (ip), vehicle: acetone): 134 % of control | T/C (dose: 25.0 mg/kg/injection, schedule: Q04DX003 (ip), vehicle: saline): 126 % of control | T/C (dose: 33.0 mg/kg/injection, schedule: Q01DX001 (ip), vehicle: saline): 130 % of control | T/C (dose: 50.0 mg/kg/injection, schedule: Q01DX001 (ip), vehicle: saline): 125 and 126 % of control | survivor count (dose: 67.5 mg/kg/injection, schedule: Q01DX009 (ip), vehicle: saline): 1 of 6 | T/C (dose: 75.0 mg/kg/injection, schedule: Q01DX001 (ip), vehicle: saline): 135 % of control | survivor count [1]: 1 of 4 | survivor count (dose: 100.0 mg/kg/injection, schedule: Q04DX003 (ip), vehicle: acetone): 3 of 6 | survivor count (dose: 125.0 mg/kg/injection, schedule: Q01DX009 (ip), vehicle: saline): 0 of 6 | survivor count (dose: 200.0 mg/kg/injection, schedule: Q01DX001 (ip), vehicle: saline): 0 of 4 | survivor count [2]: 0 of 6 | survivor count [3]: 1 of 4 | survivor count [4]: 0 of 6

CSc1nc2nc(Cl)c(Cl)nc2[nH]1
T/C (dose: 50.0 mg/kg/injection, schedule: Q01DX009 (ip), vehicle: saline): 126 % of control | survivor count (dose: 100.0 mg/kg/injection, schedule: Q01DX009 (ip), vehicle: saline): 4 of 6 | survivor count (dose: 200.0 mg/kg/injection, schedule: Q01DX009 (ip), vehicle: saline): 3 of 6 | survivor count [5]: 0 of 6

CC[N+](=Cc1ccccc1)C1CCCCC1
survivor count [5]: 2 of 6

[Ni+2].[O-]c1ccc(Cl)cc1C=NCc1ccccn1.[O-]c1ccc(Cl)cc1C=NCc1ccccn1
survivor count [6]: 6 of 6

C1CC[N+]2(CC1)CCC2
survivor count [7]: 0 of 6 | survivor count [8]: 0 of 6 | survivor count [3]: 0 of 6 | survivor count [9]: 1 of 6

CCc1c[n+](CC(=O)c2ccc([N+](=O)[O-])cc2)ccc1C
survivor count [10]: 2 of 6 | survivor count [11]: 0 of 6 | survivor count [12]: 0 of 6

CN(C)c1ncc(C(N)=O)cn1
survivor count [13]: 1 of 6

C=C1CC2(CCC3(CC2)CC(=C)C(=O)O3)OC1=O (stereo not given)
survivor count [7]: 1 of 4 | survivor count [8]: 0 of 4 | survivor count [9]: 0 of 4

CCN(CC)CCCC(C)Nc1cc(C)nc(Nc2nc3cc(Cl)c(Cl)cc3[nH]2)n1 (stereo not given)
survivor count (dose: 20.0 mg/kg/injection, schedule: Q01DX009 (ip), vehicle: saline with Tween-80): 4 of 6

CCOc1ccccc1NC(=S)NC1CCCCC1
survivor count [13]: 0 of 6

CN(C)CCCN1c2ccc(O)cc2Sc2ccc(Cl)cc21
survivor count (dose: 50.0 mg/kg/injection, schedule: Q01DX009 (ip), vehicle: other): 5 of 10 | survivor count (dose: 100.0 mg/kg/injection, schedule: Q01DX009 (ip), vehicle: other): 0 of 10 | survivor count (dose: 200.0 mg/kg/injection, schedule: Q04DX003 (ip), vehicle: saline with Tween-80): 6 of 6

c1ccc2c3csccc-3nc2c1
survivor count [2]: 0 of 6 | survivor count [4]: 0 of 6 (2×)

Cc1ccc(Cl)cc1NC(=O)Nc1ccc(F)c([N+](=O)[O-])c1
survivor count (dose: 50.0 mg/kg/injection, schedule: Q01DX009 (ip), vehicle: saline with Tween-80): 6 of 6 | T/C [10]: 89, 90 [2 of 3 alive], 101 % of control | survivor count [10]: 6 of 6 | survivor count [14]: 6 of 6

O=C1CN(CCN2CC(=O)NC(=O)C2)CC(=O)N1
T/C (dose: 6.25 mg/kg/injection, schedule: Q03HX024 (ip), vehicle: steroid suspending solution): 146 % of control | T/C (dose: 8.4 mg/kg/injection, schedule: Q03HX032 (ip), vehicle: other): 136 and 142 % of control [8 of 10 alive] | T/C (dose: 12.5 mg/kg/injection, schedule: Q01DX Z (ip), vehicle: steroid suspending solution): 138 % of control | T/C (dose: 12.5 mg/kg/injection, schedule: Q03HX008 (ip), vehicle: steroid suspending solution): 129 % of control | T/C (dose: 25.0 mg/kg/injection, schedule: Q01DX009 (ip), vehicle: steroid suspending solution): 148 % of control | T/C (dose: 25.0 mg/kg/injection, schedule: Q01DX009 (sc), vehicle: steroid suspending solution): 140 % of control | T/C (dose: 25.0 mg/kg/injection, schedule: Q03HX008 (ip), vehicle: steroid suspending solution): 149 % of control | T/C (dose: 50.0 mg/kg/injection, schedule: Q04DX003 (ip), vehicle: steroid suspending solution): 130 % of control | T/C (dose: 100.0 mg/kg/injection, schedule: Q01DX009 (ip), vehicle: steroid suspending solution): 135 % of control | T/C (dose: 100.0 mg/kg/injection, schedule: Q01DX009 (sc), vehicle: steroid suspending solution): 132 % of control | T/C (dose: 100.0 mg/kg/injection, schedule: Q01DX Z (ip), vehicle: steroid suspending solution): 135 % of control

C1=Nc2ccccc2/C1=C/c1cccc2ccccc12
survivor count (dose: 400.0 mg/kg/injection, schedule: Q04DX002 (ip), vehicle: saline with Tween-80): 3 of 3

O=c1[nH]c2c(cc1Br)C(Br)C(Br)C=C2 (stereo not given)
survivor count [15]: 0 of 4

COc1cc(OC)c(OC)cc1/C=C\c1ccc2ccccc2[n+]1C
survivor count [14]: 2 of 6

CCN1CCCC(Nc2nc(C(Cl)(Cl)Cl)nc3cc(Cl)ccc23)C1 (stereo not given)
survivor count [11]: 4 of 6 | survivor count [12]: 0 of 6

CC(=O)N/N=C/c1ccc(N(C)C)cc1
survivor count [16]: 2 of 4

CN(CN(C)NC(=O)c1ccccc1)NC(=O)c1ccccc1
survivor count (dose: 200.0 mg/kg/injection, schedule: Q01DX001 (ip), vehicle: carboxymethylcellulose (CMC)): 0 of 6 | survivor count [16]: 0 of 6

COC1OC(CO)C2OC12 (stereo not given)
survivor count [1]: 2 of 4 | survivor count [3]: 2 of 4

CSc1ncc2cnccn12
survivor count (dose: 200.0 mg/kg/injection, schedule: Q01DX009 (ip), vehicle: water): 0 of 6 | survivor count [8]: 0 of 6 | survivor count (dose: 200.0 mg/kg/injection, schedule: Q04DX003 (ip), vehicle: water): 1 of 6 | survivor count (dose: 400.0 mg/kg/injection, schedule: Q04DX003 (ip), vehicle: water): 0 of 6

c1ccc(Cc2ccncc2)cc1
survivor count [12]: 0 of 6

O=C(O)C1C(c2ccccc2)C2(c3ccccc3)C(=O)C1(c1ccccc1)C(c1ccccc1)=C2c1ccccc1 (stereo not given)
survivor count (dose: 100.0 mg/kg/injection, schedule: Q01DX001 (ip), vehicle: saline with Tween-80): 3 of 3

CC(=O)[O][Hg][c]1c(N)c(C)cc(C)c1F
survivor count (dose: 20.0 mg/kg/injection, schedule: Q01DX009 (ip), vehicle: saline): 1 of 6 | survivor count (dose: 50.0 mg/kg/injection, schedule: Q04DX003 (ip), vehicle: saline): 3 of 6 | survivor count [7]: 0 of 6 | survivor count [8]: 3 of 6 | survivor count [9]: 0 of 6

Cc1cn(-c2ccccc2)c(=O)[nH]c1=O
survivor count (dose: 200.0 mg/kg/injection, schedule: Q01DX001 (ip), vehicle: other): 3 of 6 | survivor count [15]: 0 of 6

O=C(Nc1ccccc1)C1C2C=CC(C2)C1C(=O)Nc1ccccc1 (stereo not given)
survivor count [6]: 3 of 3
